Test results from PubChem BioAssay AID1487 (National Center for Advancing Translational Sciences (NCATS), 2009).
The list shows a part of the results. The main result of the screen is listed elsewhere. These columns were measured beside it and carry no call. The list favours compounds with an active or inconclusive main result. Words in brackets tell the shape of the fitted curve; partial curves, single points and poor fits give uncertain potencies.

Assay: qHTS Assay for Modulators of Lamin A Splicing
Conditions: HeLa LMNA splicing GFP/RFP minigene ratio, 48 h
Summary of the method: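 S3 HeLa stable clones carrying a lamin A-EGFP splicing minigene plus DsRed2 were seeded at 600 cells/well in Opti-MEM with 2% FBS, pin-dosed and incubated 48 h at 37°C. Acumen cytometry (488 nm) gave the GFP/RFP total-intensity ratio.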

[1] = measured here: GFP splicing reporter channel
[2] = measured here: RFP viability control channel

SMILES	AC50 [1]	AC50 [2]
O=C(CC1C(=O)NCCN1Cc1ccc(-c2ccccc2)cc1)NCCc1ccccn1 (centres undefined)	0.112 µM [falling, full curve, poor fit]	0.0891 µM [falling, full curve, poor fit]
Cc1ccc(CNS(=O)(=O)c2cc3c(cc2Cl)NC(=O)CO3)o1	0.631 µM [rising, single point]	–
O=C(CN1C(=O)NC2(CCCCCCC2)C1=O)N1CCc2ccccc2C1	0.1 µM [rising, full curve, poor fit]	–
NS(=O)(=O)c1ccc(NC(=O)CSc2ccc3ccccc3n2)cc1	–	1.26 µM [falling, full curve]
COc1ccc(O)c(C(=O)c2cc(C(=O)NCCc3ccccc3)c(=O)n(CCc3ccccc3)c2)c1	–	11.2 µM [rising, partial curve]
COc1ccc(/C=N/NC(=O)CN(C2=NS(=O)(=O)c3ccccc32)c2ccccc2)cc1	–	12.6 µM [rising, partial curve]
Cc1csc2nc(-c3ccc(NS(=O)(=O)c4cc(F)ccc4F)cc3)cn12	0.398 µM [rising, partial curve, poor fit]	–
OC1(c2cccc(C(F)(F)F)c2)CCN(Cc2nnnn2Cc2ccccc2)CC1	0.0891 µM [rising, full curve, poor fit]	–
COc1ccccc1C(=O)Nc1ccc(C(=O)OCc2cc(=O)n3nc(C)sc3n2)cc1	–	0.794 µM [rising, full curve, poor fit]
COc1ccc(CNc2ncnc3ccc(-c4cccnc4)cc23)c(OC)c1	11.2 µM [falling, partial curve]	11.2 µM [falling, partial curve]
Cc1ccc(-n2c(O)c(C=NC3CCS(=O)(=O)C3)c3ccccc3c2=O)cc1C (centres undefined)	–	8.91 µM [rising, partial curve, poor fit]
O=C(c1cc2ccccc2c(=O)o1)N1CCCc2ccccc21	–	5.62 µM [rising, single point]
COC(=O)c1sc2ncn(CC(=O)NCCc3ccc(OC)c(OC)c3)c(=O)c2c1C	–	35.5 µM [falling, single point]
CCN(CC)C(=O)CSc1nc2ccc(NC(=O)CSc3nccn3C)cc2s1	–	14.1 µM [rising, single point]
CCOC(=O)c1[nH]c2ccccc2c1NC(=S)Nc1cccc(C)c1	7.08 µM [rising, full curve, poor fit]	0.0794 µM [rising, full curve]
Cn1c(=O)c2c(nc(Br)n2Cc2ccccc2Cl)n(C)c1=O	15.8 µM [rising, single point]	31.6 µM [rising, single point]
CN(C)C(=O)c1ccc(-c2nc(NCc3ccccc3)c3ccccc3n2)cc1	35.5 µM [rising, single point]	35.5 µM [rising, single point]
Brc1ccc(C2=Nc3ccccc3C(c3ccncc3)=NN2)cc1	0.562 µM [falling, partial curve, poor fit]	2.51 µM [falling, single point]
CCn1nc(CC(=O)Nc2ccc(-n3cnnn3)c(OC)c2)c2ccccc2c1=O	–	3.16 µM [rising, partial curve, poor fit]

Random excerpt: three compounds from above.
SMILES	AC50 [1]	AC50 [2]
OC1(c2cccc(C(F)(F)F)c2)CCN(Cc2nnnn2Cc2ccccc2)CC1	0.0891 µM [rising, full curve, poor fit]	–
COC(=O)c1sc2ncn(CC(=O)NCCc3ccc(OC)c(OC)c3)c(=O)c2c1C	–	35.5 µM [falling, single point]
CCn1nc(CC(=O)Nc2ccc(-n3cnnn3)c(OC)c2)c2ccccc2c1=O	–	3.16 µM [rising, partial curve, poor fit]

Further structures follow.

SMILES	AC50 [1]	AC50 [2]
CCN(CCO)Cc1csc2cc(C)ccc12	–	35.5 µM [rising, single point]
COc1ccc2cc(-c3cc(C(=O)O)c4ccccc4n3)ccc2c1	7.08 µM [falling, partial curve, poor fit]	–
O=C(COc1ccc(-c2nnc(N3CCCCC3)c3ccccc23)cc1)N1CCCCC1	–	12.6 µM [rising, partial curve, poor fit]
CCCSc1nc(-c2ccccc2)[nH]c1S(=O)(=O)c1ccc(C)cc1	–	31.6 µM [rising, single point]
COc1ccc(N2CCN(C(=O)NC34CC5CC(CC(C5)C3)C4)CC2)cc1	–	12.6 µM [rising, single point]
Cc1nc(OCc2c(C)noc2C)c2ccccc2n1	0.0708 µM [falling, full curve, poor fit]	0.00891 µM [falling, full curve, poor fit]
CCOc1ccc(C(=O)NC(=S)Nc2ccccc2N2CCOCC2)cc1Br	0.00501 µM [falling, full curve, poor fit]	0.00501 µM [falling, full curve, poor fit]
O=C(Cc1ccccc1)NNC(=O)C1CCN(c2ncccn2)CC1	–	0.0708 µM [rising, full curve, poor fit]
COc1cc(/C=C2/SC(=S)NC2=O)ccc1OS(=O)(=O)c1ccc(C)cc1	–	35.5 µM [rising, single point]
COc1ccccc1NC(=O)c1cnc(SCC(=O)N2CCOCC2)n(C)c1=O	14.1 µM [falling, single point]	35.5 µM [falling, single point]
C/C(=N\NC1=NCCN1)c1ccccc1	5.62 µM [rising, partial curve]	–
CC(=O)/C(=N/Nc1ccc(C)cc1)Sc1nnc(CCc2ccccc2)n1-c1ccccc1	–	20 µM [rising, single point]
CC(=O)c1ccc(NC(=S)N2CCN(c3cccc(Cl)c3)CC2)cc1	–	20 µM [rising, partial curve, poor fit]
CC(C)/C=N/Nc1nc(-c2ccc(Br)cc2)cs1	17.8 µM [rising, single point]	35.5 µM [rising, single point]
Cc1ccc(OCC(=O)NC2CCCC2)c(C)c1	–	31.6 µM [rising, single point]
NS(=O)(=O)c1ccc(Nc2ccc3nonc3c2[N+](=O)[O-])cc1	–	0.0562 µM [rising, full curve, poor fit]
CCOC(=O)C1=Nc2ccccc2C1=[N+]=[N-]	–	15.8 µM [rising, single point]
Cc1ccccc1/C=N/Nc1ccc(Cl)nn1	–	0.158 µM [rising, full curve, poor fit]
CCN(CC)S(=O)(=O)c1cccc(NC(=O)c2ccc(-n3nc(C)cc3C)cc2)c1	–	11.2 µM [rising, partial curve]

SMILES	AC50 [1]	AC50 [2]
CCn1cc([N+](=O)[O-])c(C(=O)Nc2nc(-c3ccc(C)c(C)c3)c(C)s2)n1	–	15.8 µM [rising, single point]
COc1ccc(OCCn2c(NC(=O)c3ccco3)nc3ccccc32)cc1	17.8 µM [rising, single point]	25.1 µM [rising, single point]
COc1cccc(-c2nnc(SCc3cccnc3)o2)c1	15.8 µM [rising, partial curve]	8.91 µM [rising, partial curve]
O=C(Nc1nnc(C(F)(F)F)s1)c1ccc(N2C(=O)C3C4C=CC(C4)C3C2=O)cc1 (centres undefined)	–	35.5 µM [rising, single point]
CCOc1ccc(Br)cc1S(=O)(=O)Nc1cccc(S(=O)(=O)N(C)c2ccccc2)c1	35.5 µM [falling, single point]	–
O=C(/C=C/c1ccc(OC2CSC2)cc1)c1ccccc1	22.4 µM [falling, single point]	25.1 µM [falling, single point]
COc1cccc(-c2nc(N(C)C)c3ccccc3n2)c1	20 µM [falling, partial curve]	–
CCOc1ccc(C(=O)Nc2ccc3nc(SCC(=O)N4CCc5ccccc54)sc3c2)cc1	1.58 µM [falling, partial curve, poor fit]	22.4 µM [falling, partial curve, poor fit]
Cc1nn(C)c(C(=O)N2CCc3ccccc32)c1Br	12.6 µM [rising, single point]	14.1 µM [rising, single point]
COc1ccccc1N(C)S(=O)(=O)c1ccc(C(=O)Nc2ccc3nc(C)sc3c2)cc1	–	14.1 µM [rising, single point]
CCNc1ncc2nc(-c3ccc(Cl)cc3)c(=O)n(Cc3cccs3)c2n1	25.1 µM [falling, partial curve, poor fit]	35.5 µM [falling, single point]
Cc1ccc2[nH]c3c(c2c1)CCc1cn[nH]c1-3	–	20 µM [rising, partial curve, poor fit]
CCCc1nc(SCC(=O)Nc2ccc(S(=O)(=O)N(C)C)cc2)c2ccccc2n1	–	7.94 µM [rising, partial curve]
COc1ccc2cc(C(=O)C3CCCN(Cc4cccc(C)n4)C3)ccc2c1 (centres undefined)	–	0.02 µM [falling, full curve, poor fit]
Cc1cc2cc(CNC(=O)c3cccc([N+](=O)[O-])c3)ccc2[nH]1	–	11.2 µM [rising, single point]
COC(=O)c1ccc(NC(=O)c2ccc(F)cc2)o1	17.8 µM [rising, single point]	22.4 µM [rising, single point]
COc1ccc(C(=O)COC(=O)CCN2C(=O)[C@@H]3[C@H](C2=O)[C@@H]2C[C@H]3C(Br)C2Br)cc1 (some centres undefined)	–	0.0562 µM [rising, full curve, poor fit]
Cc1ccc(C(=O)N2C(=S)C(c3ccc(F)cc3)=NC23CCN(C)CC3)cc1	35.5 µM [rising, single point]	35.5 µM [rising, single point]
